PubChem BioAssay AID1259308 | NCATS | 2017
Here is one part, drawn at random, of about 59,000 deposited reagents. About 1,510 of all reagents (2.6%) were called active. 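Calls use total luciferase alone and ignore viability, so some active siRNAs may act by altering cell number.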 The numbers tell different reagents against one gene apart. Not all columns of the deposit are shown.

Screen: 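Candidate targets for better recombinant protein yield in mammalian cells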 (primary screen)
System: human HEK293 embryonic kidney cells stably expressing firefly luciferase (HEK-CMV-Luc2-Hygro)
Reagent: single siRNA against human genes, 0.8 pmol siRNA per well
Timing: 72 h
Read-out: 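Luciferase light (ONE-Glo) measured on one replicate plate set and viability (CellTiter-Glo) on the other, scaled to a negative control siRNA, with robust z-scores and luciferase per cell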
Reading the numbers: total luciferase, z-score: higher = more reporter protein produced
Call rule: 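Active when the median/MAD z-score for overall luciferase is greater than 3; a gene was taken forward for validation with new siRNAs if at least two of its three siRNAs passed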
Calls: active = raised luciferase; inactive = no rise

no.	target gene	reagent	total luciferase, z-score	call
1	KLK10 (kallikrein related peptidase 10)	1	-0.219	inactive
2	KLK10 (kallikrein related peptidase 10)	2	0.223	inactive
3	KLK10 (kallikrein related peptidase 10)	3	2.99	inactive
4	LINC01011 (long independently transcribed non-coding RNA 1011)	1	2.93	inactive
5	LINC01011 (long independently transcribed non-coding RNA 1011)	2	0.141	inactive
6	LINC01011 (long independently transcribed non-coding RNA 1011)	3	-1.29	inactive
7	GPR34 (G protein-coupled receptor 34)	1	-0.236	inactive
8	GPR34 (G protein-coupled receptor 34)	2	-1.44	inactive
9	GPR34 (G protein-coupled receptor 34)	3	-1.8	inactive
10	CELF1 (CUGBP Elav-like family member 1)	1	-0.12	inactive
11	CELF1 (CUGBP Elav-like family member 1)	2	-0.131	inactive
12	CELF1 (CUGBP Elav-like family member 1)	3	0.475	inactive
13	TAAR9 (trace amine associated receptor 9)	1	-1.24	inactive
14	TAAR9 (trace amine associated receptor 9)	2	0.859	inactive
15	TAAR9 (trace amine associated receptor 9)	3	1.77	inactive
16	FUBP1 (far upstream element binding protein 1)	1	-1.45	inactive
17	FUBP1 (far upstream element binding protein 1)	2	-0.503	inactive
18	FUBP1 (far upstream element binding protein 1)	3	-0.948	inactive
19	CBX3P6 (CBX3 pseudogene 6)	1	2.19	inactive
20	CBX3P6 (CBX3 pseudogene 6)	2	0.559	inactive
21	CBX3P6 (CBX3 pseudogene 6)	3	-0.559	inactive
22	PHEX (phosphate regulating endopeptidase X-linked)	1	0.26	inactive
23	PHEX (phosphate regulating endopeptidase X-linked)	2	2.05	inactive
24	PHEX (phosphate regulating endopeptidase X-linked)	3	-2.45	inactive
25	PHPT1 (phosphohistidine phosphatase 1)	1	0.841	inactive
26	PHPT1 (phosphohistidine phosphatase 1)	2	-1.86	inactive
27	PHPT1 (phosphohistidine phosphatase 1)	3	0.268	inactive
28	GIT1 (GIT ArfGAP 1)	1	4.01	active
29	GIT1 (GIT ArfGAP 1)	2	-0.409	inactive
30	GIT1 (GIT ArfGAP 1)	3	0.991	inactive
31	UACA	1	0.0936	inactive
32	UACA	2	-0.127	inactive
33	UACA	3	0.876	inactive

Active calls, among the entries above:
target gene	reagent	total luciferase, z-score	call
GIT1 (GIT ArfGAP 1)	1	4.01	active

Continued:
no.	target gene	reagent	total luciferase, z-score	call
34	DNAJC13 (DnaJ heat shock protein family (Hsp40) member C13)	1	0.815	inactive
35	DNAJC13 (DnaJ heat shock protein family (Hsp40) member C13)	2	-0.342	inactive
36	DNAJC13 (DnaJ heat shock protein family (Hsp40) member C13)	3	-0.95	inactive
37	AIM2 (absent in melanoma 2)	1	1.24	inactive
38	AIM2 (absent in melanoma 2)	2	-0.603	inactive
39	AIM2 (absent in melanoma 2)	3	-0.36	inactive
40	PTGIS (prostaglandin I2 synthase)	1	-1.03	inactive
41	PTGIS (prostaglandin I2 synthase)	2	-0.583	inactive
42	PTGIS (prostaglandin I2 synthase)	3	0.0218	inactive
43	EGFLAM (EGF like, fibronectin type III and laminin G domains)	1	-0.477	inactive
44	EGFLAM (EGF like, fibronectin type III and laminin G domains)	2	-1.34	inactive
45	EGFLAM (EGF like, fibronectin type III and laminin G domains)	3	-0.855	inactive
46	RNASEH1 (ribonuclease H1)	1	0.21	inactive
47	RNASEH1 (ribonuclease H1)	2	-0.272	inactive
48	RNASEH1 (ribonuclease H1)	3	1.53	inactive
49	RTRAF (RNA transcription, translation and transport factor)	1	0.348	inactive
50	RTRAF (RNA transcription, translation and transport factor)	2	0.377	inactive
51	RTRAF (RNA transcription, translation and transport factor)	3	-1.32	inactive
52	SLC37A3	1	-0.418	inactive
53	SLC37A3	2	-0.609	inactive
54	SLC37A3	3	-0.932	inactive
55	SUSD3 (sushi domain containing 3)	1	1.73	inactive
56	SUSD3 (sushi domain containing 3)	2	-0.553	inactive
57	SUSD3 (sushi domain containing 3)	3	0.0609	inactive
